## Results of single-concentration screens

T. brucei: 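Whole-parasite assay of Trypanosoma brucei over 72 hours; the read-out is not stated. Concentration: 30 µM. Direction is inferred from retests: higher values go with stronger inhibition. Values scatter widely below zero; nearly all retest evidence comes from the higher of the two concentrations used. Size under these conditions: about 64,000 compounds, about 940 of them at 50% or above in at least one test.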
Toxoplasma: 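Assay of Toxoplasma gondii numbers, read through their beta-galactosidase reporter with a colour substrate. Compounds at 10 µM. The record gives no direction; the compounds picked for IC50 retests had high values, so higher reads as fewer parasites. Of about 67,000 compounds tested this way, about 260 (0.38%) reached 50% or more in at least one test.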

The filed quantity is “Percent Effect” (%). The controls that fix the scale are not given in the record; negative values are as filed. This is an unselected part of the compounds tested.

| # | compound | T. brucei | Toxoplasma |
|---|---|---|---|
| 1 | `CCc1noc(C2CCCCN2C(=O)c2nnc3ccccc3n2)n1` (centres undefined) | 38.74 | 6.814 |
| 2 | `COc1ccc(C(N)=O)cc1NCc1nc(-c2cccs2)oc1C` | -23.86 | 2.672 |
| 3 | `Cc1nc(-c2cc(C(=O)NCCN3CCOCC3)c3ccccn23)cs1.O=C(O)C(F)(F)F` | -1.462 | -0.08097 |
| 4 | `O=C(NCC1CC1)c1nc2c(o1)CN(CC1CC1)C2.O=C(O)C(F)(F)F` | -73.57 | -2.074 |
| 5 | `COc1cccc(Cn2cc(C3=CCN(CC(=O)N(C)C)CC3)cn2)c1` | 4.573 | -13.96 |
| 6 | `CSc1ncc(C(=O)NCc2cc3n(n2)CCCN(CC(C)C)C3)cn1` | -220.8 | -1.296 |
| 7 | `COC1CN(C(=O)CC2CCCC2)CCC(=O)N(C)c2ccccc21` (centres undefined) | 3.624 | -1.81 |
| 8 | `O=C1CC(c2ccc(C(=O)O)cc2)c2cnn(Cc3ccco3)c2N1` (centres undefined) | -4.338 | -15.82 |
| 9 | `CCNc1cc2c(nn1)CCN(C(=O)c1cc3nc(C)ccc3o1)C2` | 62.84 | 2.311 |
| 10 | `O=C(O)C(F)(F)F.[H][C@@]12C[C@H](C(=O)NCCN(C)C)[C@@]([H])(CN(C(=O)NC3CCCC3)C1)O2` | -59.84 | 4.908 |
| 11 | `CCOc1ccc2[nH]c(=O)c(CN3CCC(n4cnnc4)CC3)cc2c1` | -5.992 | 9.222 |
| 12 | `[H][C@@]12CN(C(=O)c3ccnnc3)C[C@]1([H])CN(c1ncccn1)C2` | -54.21 | -3.825 |
| 13 | `Cc1ccc(NC(=O)Nc2cnc(N3CCN(C)CC3)nc2)c(Cl)c1` | 40.8 | -9.534 |
| 14 | `[H][C@]12CC[C@]([H])(CN(Cc3ccccc3)C1)N(Cc1scnc1C)C2` | -27.11 | 0.3234 |
| 15 | `Cc1c(C(=O)O)sc2nc(Cc3ccccc3)nc(N)c12` | -20.21 | 7.458 |
| 16 | `O=C(O)[C@H]1C[C@H](C(=O)NC2CC2)CN(Cc2ccc(-c3cc[nH]n3)s2)C1` | -47.99 | 3.924 |
| 17 | `CCc1ccc(S(=O)(=O)N2CCCn3ncnc32)s1` | -11.93 | -6.987 |
| 18 | `CCc1oc(C(=O)NCCc2cc(O)nc(C)n2)cc1CN1CCCC1` | -8.874 | 0.5325 |
| 19 | `Cc1csc(C(=O)N2CCC3(CC(N(C)c4ccncn4)C3)C2)c1` (centres undefined) | -6.318 | -13.65 |
| 20 | `Cc1cc(C)n(CC(C)NC2CCN(Cc3cccnc3)CC2)n1` (centres undefined) | 14.94 | 5.13 |
| 21 | `CC(C)n1cc(CN(Cc2ccsc2)CC2CCCO2)cn1` (centres undefined) | -49.65 | 12.52 |
| 22 | `O=C(O)C(F)(F)F.[H][C@@]12CN(Cc3c(C)noc3C)C[C@]1([H])CC(F)(F)C2` | -53.86 | 8.793 |
| 23 | `Cn1c(-c2ccc(F)cc2)cn2cc(C(=O)N3CCC(N)C3)nc2c1=O` (centres undefined) | -26.18 | -10.94 |
| 24 | `Cn1c(CN2CCCC2)nnc1C1CCCN(C(=O)C2CCOCC2)C1` (centres undefined) | 5.119 | -1.039 |
| 25 | `O=C1NCCCc2[nH]c(C3CCCN(C(=O)C4CC4)C3)nc21` (centres undefined) | -13.65 | -35.7 |
| 26 | `COc1cccc(COCC(=O)N2CCCN(CC(N)=O)CC2)c1` | 3.925 | 11.4 |
| 27 | `[H][C@]12CCCCN1CCC[C@@]2(O)Cn1cnc(Cl)c1Cl` | -2.469 | 1.765 |
| 28 | `CCN(CC)CCSc1nnc(N2CCN(c3ccc(F)cc3)CC2)s1` | -40.65 | -9.712 |
| 29 | `Cc1ccc(-c2n[nH]cc2CNCC2CCS(=O)(=O)C2)o1` (centres undefined) | -64.09 | 11.54 |
| 30 | `COCC1CC2(CCN(Cc3ccco3)CC2)CN1C(C)C.O=C(O)C(F)(F)F.O=C(O)C(F)(F)F` (centres undefined) | 42.98 | 5.054 |
| 31 | `CCc1ccc(C(=O)Nc2cccc(CN3CCCC3C(N)=O)c2)cc1` (centres undefined) | 10.34 | 16.05 |
| 32 | `CC(C)[C@@H]1CN(Cc2c[nH]nc2-c2ccc(F)cc2)C[C@H]1NS(C)(=O)=O` | -7.921 | -13.52 |
| 33 | `Cc1ccc(-n2nnc(C(=O)NS(C)(=O)=O)c2C2CC2)cc1` | 16.35 | 17.02 |
| 34 | `CCn1ccnc1CN1CCN(c2ccc3nnc(C)n3n2)CC1` | -36.88 | -0.1264 |
| 35 | `Cc1ccc(C(=O)N2CCN(Cc3ccccc3)CC2)n1C` | -4.717 | -6.147 |
| 36 | `Cc1cc(C(=O)O)c2c(Br)cccc2n1` | -13.11 | -2.206 |
| 37 | `COc1ccc(CCNC(=O)NCC(O)c2cccc(F)c2)cc1` (centres undefined) | 3.247 | 3.182 |
| 38 | `Cc1ccccc1OCCN1CCCC(c2cc(C(N)=O)[nH]n2)C1` (centres undefined) | 8.895 | -1.618 |
| 39 | `Cc1nc(C)n(CC2CCCN2Cc2cnc(C)s2)n1` (centres undefined) | 15.49 | 5.096 |
| 40 | `COCCOCC(=O)N1CCC(O)(c2ccc3nc(C)ccc3c2)CC1` | -22.66 | 8.569 |
| 41 | `Cn1cccc1C(=O)NCc1cnc2n1CCN(C(=O)c1ccoc1)C2` | 0.2233 | 5.352 |
| 42 | `Cn1cc(N2CC3(COCCN(Cc4ccsc4)C3)OCC2=O)cn1.O=C(O)C(F)(F)F` (centres undefined) | -46.9 | -11.39 |
| 43 | `COCCCN(C)C1CCCN(Cc2noc(C3CC3)n2)C1` (centres undefined) | -20.46 | -16.24 |
| 44 | `O=c1[nH][nH]cc1-c1ccnc(NCCN2CCCC2)n1` | -36.87 | 10.43 |
| 45 | `CS(=O)(=O)N1CCc2sc(C(=O)NCc3ccccc3)cc21` | -7.609 | -6.031 |
| 46 | `CC(C)c1cc(CNC(=O)N2CCC(Cc3cnn(C)c3)C2)on1` (centres undefined) | -17.27 | 9.699 |
| 47 | `Cc1cc(N2CCC3(CC2)C(C(=O)O)CC(=O)N3C)nc2ccccc12` (centres undefined) | 27.45 | 7.65 |
| 48 | `CCOc1ccc2cc(C(=O)N3CCn4c(CC)nnc4C3)[nH]c2c1` | -3.939 | -2.816 |
| 49 | `COc1ccc(C2Nc3cc(Cl)ccc3C3=NCCN32)cc1O` (centres undefined) | 12.75 | -11.25 |

Once more, the final 4:

{"compound": "CC(C)c1cc(CNC(=O)N2CCC(Cc3cnn(C)c3)C2)on1", "stereo": "centres undefined", "T. brucei": -17.27, "Toxoplasma": 9.699}
{"compound": "Cc1cc(N2CCC3(CC2)C(C(=O)O)CC(=O)N3C)nc2ccccc12", "stereo": "centres undefined", "T. brucei": 27.45, "Toxoplasma": 7.65}
{"compound": "CCOc1ccc2cc(C(=O)N3CCn4c(CC)nnc4C3)[nH]c2c1", "T. brucei": -3.939, "Toxoplasma": -2.816}
{"compound": "COc1ccc(C2Nc3cc(Cl)ccc3C3=NCCN32)cc1O", "stereo": "centres undefined", "T. brucei": 12.75, "Toxoplasma": -11.25}

Data taken from ChEMBL document CHEMBL3988442, “University of Dundee, Small-Polar-MMV Screening Library” (2021).